Measurements as given in patent US8748433B2, “β3 adrenergic receptor agonists” (Merck Sharp & Dohme Corp., priority 2010, dated 2014).
Structures were worked out from names or drawings and are uncertain.

By UniProt entry, the sequences of proteins in these tests, tags left out.
UniProt P13945, whole entry: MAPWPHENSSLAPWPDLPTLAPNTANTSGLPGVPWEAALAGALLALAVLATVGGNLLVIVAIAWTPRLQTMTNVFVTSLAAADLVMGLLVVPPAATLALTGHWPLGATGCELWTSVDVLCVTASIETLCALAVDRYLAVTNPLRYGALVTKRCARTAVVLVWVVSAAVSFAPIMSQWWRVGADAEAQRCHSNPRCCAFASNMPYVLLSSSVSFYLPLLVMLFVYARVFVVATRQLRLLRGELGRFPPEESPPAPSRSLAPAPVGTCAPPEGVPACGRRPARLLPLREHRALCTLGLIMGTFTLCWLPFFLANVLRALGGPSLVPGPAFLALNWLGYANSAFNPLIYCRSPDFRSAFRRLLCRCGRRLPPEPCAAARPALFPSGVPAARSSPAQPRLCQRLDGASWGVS

Molecular target: human β3 adrenergic receptor (Homo sapiens, UniProt P13945)
Test: Functional assay: cAMP production in CHO cells stably transfected with cloned β3-adrenergic receptor (LANCE TR-FRET)
Assay type: cell-based
Conditions: read-out: Human β3 agonist functional activity, Table 1
Protocol: cAMP production in response to ligand is measured according to Barton, et al. (1991, Agonist-induced desensitization of D2 dopamine receptors in human Y-79 retinoblastoma cells. Mal. Pharmacol. v3229:650-658) modified as follows. cAMP production is measured using a homogenous time-resolved fluorescence resonance energy transfer immunoassay (LANCE™, Perkin Elmer) according to the manufacture's instructions. Chinese hamster ovary (CHO) cells, stably transfected with the cloned β-adrenergic receptor (β1, β2 or β3) are harvested after 3 days of subculturing. Harvesting of cells is done with Enzyme-free Dissociation. Media (Specialty Media). Cells are then counted and resuspended in assay buffer (Hank's Balanced salt solution supplemented with 5 mM HEPES, 0.1% BSA) containing a phosphodiesterase inhibitor (IBMX, 0.6 mM). The reaction is initiated by mixing 6,000 cells in 6 μL with 6 μL Alexa Fluor labeled cAMP antibody (LANCE™ kit) which is then added to an assay well containing 12 μL of compound (diluted in assay buffer to 2× final concentration). The reaction proceeds for 30 min at room temperature and is terminated by the addition of 24 μL detection buffer (LANCE™ kit). The assay plate is then incubated for 1 h at room temperature and time-resolved fluorescence measured on a Perkin Elmer Envision reader or equivalent. The unknown cAMP level is determined by comparing fluorescence levels to a cAMP standard curve.
The non-selective, full agonist β-adrenergic ligand isoproterenol is used at all three receptors to determine maximal stimulation. The human β3 adrenergic receptor (AR) selective ligand (S)—N-[4-[2-[[2-hydroxy-3-(4-hydroxyphenoxy)propyl]amino]ethyl]-phenyl]-4-iodobenzenesulfonamide is used as a control in all assays. Isoproterenol is titrated at a final concentration in the assay of 10^-10 M to 10-5 and the selective ligand (S)—N-[4-[2-[[2-hydroxy-3-(4-hydroxyphenoxy)propyl]amino]ethyl]phenyl]-4-iodobenzenesulfonamide is titrated at the β3 receptor at concentration of 10^-10 M to 10^-5 M. Unknown ligands are titrated at all 3β-adrenergic receptor subtypes at a final concentration in the assay of 10^-10 M to 10^-5 M to determine the EC50. The EC50 is defined as the concentration of compound that gives 50% activation of its own maximum. Data are analyzed using Microsoft Excel and Graphpad Prism or an internally developed data analysis software package.

| Compound | EC50 |
| --- | --- |
| Cc1nc2c(s1)CCCC2c1nc2ccc(C[C@@H]3CC[C@H]([C@H](O)c4ccccc4)N3)cc2[nH]1 (single isomer, unassigned) | 101 to 1000 nM |
| O[C@H](c1ccccc1)[C@H]1CC[C@@H](Cc2ccc3nc(CCn4ccnc4)[nH]c3c2)N1 | 101 to 1000 nM |
| O[C@H](c1ccccc1)[C@H]1CC[C@@H](Cc2ccc3nc(Cn4cccn4)[nH]c3c2)N1 | 101 to 1000 nM |
| O[C@H](c1ccccc1)[C@H]1CC[C@@H](Cc2ccc3nc(Cn4ncc5ccccc54)[nH]c3c2)N1 | 101 to 1000 nM |

The next lines start with the values.

| EC50 | Compound |
| --- | --- |
| 101 to 1000 nM | C[C@@H](c1nc2ccc(C[C@@H]3CC[C@H]([C@H](O)c4ccccc4)N3)cc2[nH]1)n1cnccc1=O |
| 101 to 1000 nM | O[C@H](c1ccccc1)[C@H]1CC[C@@H](Cc2ccc3nc(CCn4cccn4)[nH]c3c2)N1 |
| 11 to 100 nM | O[C@H](c1cccnc1)[C@H]1CC[C@@H](Cc2ccc3nc(CCn4ncc5ccccc54)[nH]c3c2)N1 |
| 101 to 1000 nM | O[C@H](c1ccccc1)[C@H]1CC[C@@H](Cc2ccc3nc(CCc4cnccn4)[nH]c3c2)N1 |
| 11 to 100 nM | CC(c1cscn1)c1nc2ccc(C[C@@H]3CC[C@H]([C@H](O)c4ccccc4)N3)cc2[nH]1 (stereo partly drawn) |
